{"source": "the supplement of paper PMC8728848", "assay_in_all_cases": "glycan array binding signal (z-score within array); higher = stronger binding", "settings_in_all_cases": "glycan notation: IUPAC condensed, linker removed", "key": {"[1]": {"target": "Gal(b1-3)[Fuc(a1-4)]GlcNAc", "procedure,_shortened": "(§1)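 Negative Z-scores can be read as non-binding. The Z-score is calculated within each array and then averaged across arrays of one protein sequence at different concentrations or buffers and across linkers. Arrays, 3228 in all, were curated from the Consortium for Functional Glycomics database and kept only where the protein sequence was available.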"}, "[2]": {"target": "Gal(b1-3)[Fuc(a1-4)]GlcNAc(b1-3)Gal(b1-3)[Fuc(a1-4)]GlcNAc", "procedure,_shortened": "as §1"}, "[3]": {"target": "Gal(b1-3)[Fuc(a1-4)]GlcNAc(b1-3)Gal(b1-4)GlcNAc", "procedure,_shortened": "as §1"}, "[4]": {"target": "Gal(b1-3)[Fuc(a1-4)]GlcNAc(b1-3)Gal(b1-4)[Fuc(a1-3)]GlcNAc", "procedure,_shortened": "as §1"}, "[5]": {"target": "Gal(b1-3)[GlcNAc(b1-6)]GalNAc", "procedure,_shortened": "as §1"}, "[6]": {"target": "Gal(b1-3)[GlcNAc(b1-6)]GlcNAc", "procedure,_shortened": "as §1"}, "[7]": {"target": "Gal(b1-3)[Neu5Ac(a2-6)]GalNAc", "procedure,_shortened": "as §1"}, "[8]": {"target": "Gal(b1-3)[Neu5Ac(a2-6)]GlcNAc", "procedure,_shortened": "as §1"}, "[9]": {"target": "Gal(b1-3)[Neu5Ac(a2-6)]GlcNAc(a1-4)Gal(b1-4)Glc", "procedure,_shortened": "as §1"}, "[10]": {"target": "Gal(b1-3)[Neu5Ac(b2-6)]GlcNAc", "procedure,_shortened": "as §1"}, "[11]": {"target": "Gal(b1-4)GalNAc(a1-3)[Fuc(a1-2)]Gal(b1-4)GlcNAc", "procedure,_shortened": "as §1"}, "[12]": {"target": "Gal(b1-4)GalNAc(b1-3)[Fuc(a1-2)]Gal(b1-4)GlcNAc", "procedure,_shortened": "as §1"}, "Gal(b1-4)Glc": {"target": "Gal(b1-4)Glc", "procedure,_shortened": "as §1"}, "Gal(b1-4)Glc6S": {"target": "Gal(b1-4)Glc6S", "procedure,_shortened": "as §1"}, "Gal(b1-4)GlcNAc": {"target": "Gal(b1-4)GlcNAc", "procedure,_shortened": "as §1"}, "[13]": {"target": "Gal(b1-4)GlcNAc(b1-2)Man(a1-3)[Gal(b1-4)GlcNAc(b1-2)Man(a1-6)]Man(b1-4)GlcNAc(b1-4)GlcNAc", "procedure,_shortened": "as §1"}, "[14]": {"target": "Gal(b1-4)GlcNAc(b1-3)Gal(b1-3)GlcNAc", "procedure,_shortened": "as §1"}, "[15]": {"target": "Gal(b1-4)GlcNAc(b1-3)Gal(b1-4)Glc", "procedure,_shortened": "as §1"}, "[16]": {"target": "Gal(b1-4)GlcNAc(b1-3)Gal(b1-4)GlcNAc", "procedure,_shortened": "as §1"}, "[17]": {"target": "Gal(b1-4)GlcNAc(b1-3)Gal(b1-4)GlcNAc(b1-3)Gal(b1-4)GlcNAc", "procedure,_shortened": "as §1"}, "[18]": {"target": "Gal(b1-4)GlcNAc(b1-3)Gal(b1-4)[Fuc(a1-3)]GlcNAc(b1-3)Gal(b1-4)[Fuc(a1-3)]GlcNAc", "procedure,_shortened": "as §1"}, "[19]": {"target": "Gal(b1-4)GlcNAc(b1-3)GalNAc", "procedure,_shortened": "as §1"}, "[20]": {"target": "Gal(b1-4)GlcNAc(b1-3)[Gal(b1-4)GlcNAc(b1-6)]GalNAc", "procedure,_shortened": "as §1"}, "[21]": {"target": "Gal(b1-4)GlcNAc(b1-6)GalNAc", "procedure,_shortened": "as §1"}, "[22]": {"target": "Gal(b1-4)GlcNAc(b1-6)[Gal(b1-3)]GalNAc", "procedure,_shortened": "as §1"}, "[23]": {"target": "Gal(b1-4)GlcNAc(b1-6)[Gal(b1-3)]GlcNAc", "procedure,_shortened": "as §1"}, "Gal3S(b1-3)GalNAc": {"target": "Gal3S(b1-3)GalNAc", "procedure,_shortened": "as §1"}, "Gal3S(b1-3)GlcNAc": {"target": "Gal3S(b1-3)GlcNAc", "procedure,_shortened": "as §1"}, "[24]": {"target": "Gal3S(b1-3)[Fuc(a1-4)]GlcNAc", "procedure,_shortened": "as §1"}, "Gal3S(b1-4)Glc": {"target": "Gal3S(b1-4)Glc", "procedure,_shortened": "as §1"}, "Gal3S(b1-4)Glc6S": {"target": "Gal3S(b1-4)Glc6S", "procedure,_shortened": "as §1"}, "Gal3S(b1-4)GlcNAc": {"target": "Gal3S(b1-4)GlcNAc", "procedure,_shortened": "as §1"}, "Gal3S(b1-4)GlcNAc6S": {"target": "Gal3S(b1-4)GlcNAc6S", "procedure,_shortened": "as §1"}, "Gal3S6S(b1-4)GlcNAc": {"target": "Gal3S6S(b1-4)GlcNAc", "procedure,_shortened": "as §1"}, "Gal3S6S(b1-4)GlcNAc6S": {"target": "Gal3S6S(b1-4)GlcNAc6S", "procedure,_shortened": "as §1"}, "Gal4S(b1-4)GlcNAc": {"target": "Gal4S(b1-4)GlcNAc", "procedure,_shortened": "as §1"}, "Gal4S6S(b1-4)GlcNAc": {"target": "Gal4S6S(b1-4)GlcNAc", "procedure,_shortened": "as §1"}, "Gal6S(b1-4)Glc": {"target": "Gal6S(b1-4)Glc", "procedure,_shortened": "as §1"}}, "note": "The list shows a part of the results."}
{"binder": "FBG2 (Homo sapiens), Q9NRD1 (protein) MDAPHSKAALDSINELPENILLELFTHVPARQLLLNCRLVCSLWRDLIDLMTLWKRKCLREGFITKDWDQPVADWKIFYFLRSLHRNLLRNPCAEEDMFAWQIDFNGGDRWKVESLPGAHGTDFPDPKVKKYFVTSYEMCLKSQLVDLVAEGYWEELLDTFRPDIVVKDWFAARADCGCTYQLKVQLASADYFVLASFEPPPVTIQQWNNATWTEVSYTFSDYPRGVRYILFQHGGRDTQYWAGWYGPRVTNSSIVVSPKMTRNQASSEAQPGQKHGQEEAAQSPYRAVVQIFPPPVTIQQWNNATWTEVSYTFSDYPRGVRYILFQHGGRDTQYWAGWYGPRVTNSSIVVSPKMTRNQASSEAQPGQKHGQEEAAQSPYRAVVQI", "values": [{"measurement": "glycan array binding signal (z-score)", "setting": "[1]", "result": -0.568}, {"measurement": "glycan array binding signal (z-score)", "setting": "[2]", "result": -0.392}, {"measurement": "glycan array binding signal (z-score)", "setting": "[3]", "result": -0.352}, {"measurement": "glycan array binding signal (z-score)", "setting": "[4]", "result": -0.265}, {"measurement": "glycan array binding signal (z-score)", "setting": "[5]", "result": -0.712}, {"measurement": "glycan array binding signal (z-score)", "setting": "[6]", "result": -0.747}, {"measurement": "glycan array binding signal (z-score)", "setting": "[7]", "result": -0.611}, {"measurement": "glycan array binding signal (z-score)", "setting": "[8]", "result": -0.295}, {"measurement": "glycan array binding signal (z-score)", "setting": "[9]", "result": -0.281}, {"measurement": "glycan array binding signal (z-score)", "setting": "[10]", "result": 0.699}, {"measurement": "glycan array binding signal (z-score)", "setting": "[11]", "result": -0.734}, {"measurement": "glycan array binding signal (z-score)", "setting": "[12]", "result": -0.077}, {"measurement": "glycan array binding signal (z-score)", "setting": "Gal(b1-4)Glc", "result": -0.46}, {"measurement": "glycan array binding signal (z-score)", "setting": "Gal(b1-4)Glc6S", "result": 0.228}, {"measurement": "glycan array binding signal (z-score)", "setting": "Gal(b1-4)GlcNAc", "result": -0.343}, {"measurement": "glycan array binding signal (z-score)", "setting": "[13]", "result": -0.069}, {"measurement": "glycan array binding signal (z-score)", "setting": "[14]", "result": -0.688}, {"measurement": "glycan array binding signal (z-score)", "setting": "[15]", "result": -0.397}, {"measurement": "glycan array binding signal (z-score)", "setting": "[16]", "result": -0.538}, {"measurement": "glycan array binding signal (z-score)", "setting": "[17]", "result": -0.014}, {"measurement": "glycan array binding signal (z-score)", "setting": "[18]", "result": -0.021}, {"measurement": "glycan array binding signal (z-score)", "setting": "[19]", "result": -0.278}, {"measurement": "glycan array binding signal (z-score)", "setting": "[20]", "result": -0.564}, {"measurement": "glycan array binding signal (z-score)", "setting": "[21]", "result": -0.818}, {"measurement": "glycan array binding signal (z-score)", "setting": "[22]", "result": -0.633}, {"measurement": "glycan array binding signal (z-score)", "setting": "[23]", "result": -0.558}, {"measurement": "glycan array binding signal (z-score)", "setting": "Gal3S(b1-3)GalNAc", "result": 0.136}, {"measurement": "glycan array binding signal (z-score)", "setting": "Gal3S(b1-3)GlcNAc", "result": -0.075}, {"measurement": "glycan array binding signal (z-score)", "setting": "[24]", "result": 1.01}, {"measurement": "glycan array binding signal (z-score)", "setting": "Gal3S(b1-4)Glc", "result": 1.16}, {"measurement": "glycan array binding signal (z-score)", "setting": "Gal3S(b1-4)Glc6S", "result": 1.95}, {"measurement": "glycan array binding signal (z-score)", "setting": "Gal3S(b1-4)GlcNAc", "result": 0.144}, {"measurement": "glycan array binding signal (z-score)", "setting": "Gal3S(b1-4)GlcNAc6S", "result": 2.42}, {"measurement": "glycan array binding signal (z-score)", "setting": "Gal3S6S(b1-4)GlcNAc", "result": 2.1}, {"measurement": "glycan array binding signal (z-score)", "setting": "Gal3S6S(b1-4)GlcNAc6S", "result": 3.2}, {"measurement": "glycan array binding signal (z-score)", "setting": "Gal4S(b1-4)GlcNAc", "result": 0.389}, {"measurement": "glycan array binding signal (z-score)", "setting": "Gal4S6S(b1-4)GlcNAc", "result": 2.35}, {"measurement": "glycan array binding signal (z-score)", "setting": "Gal6S(b1-4)Glc", "result": 0.826}]}
